Experimental data: PubChem BioAssay AID504793 (Drosophila RNAi Screening Center, 2011)
The deposit covers about 23,000 reagents; below is an unselected part of those that have a named target and a result. Of all reagents, 62 (0.27%) were called active. 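Calls come from follow-up tests whose scores are not deposited, so confirmed genes may have low counts here; counts are not normalised per plate.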 Raw values are not corrected between plates. A plus sign joins genes that one reagent is predicted to hit.

Purpose: 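Whole-genome screen for parts of the DNA damage checkpoint at G2/M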 (primary screen)
Cells: Drosophila S2R+ cells
Reagent: long dsRNA against Drosophila genes, about 0.25 µg dsRNA per well
Time to read-out: 4 days of dsRNA, then 4 hours of drug before read-out
Treatment: doxorubicin 0.5 µM for 4 hours to cause double-strand breaks, in cells also given a low, harmless dose of dsRNA against nbs to sensitise the assay
Measurement: 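Mitotic index as the number of phospho-histone H3-positive cells in each well following doxorubicin, given as raw counts without normalisation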
Scale: mitotic cells: higher = more cells in mitosis, weaker G2 arrest
Hit rule: 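a call needs confirmation in secondary tests, with other dsRNAs and a check of mitotic timing without damage, not just a high primary count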
Meaning of the calls: active = confirmed in follow-up tests; inactive = not confirmed

Depletion of ksr [DRSC12379] gave: mitotic cells, replicate 1 = 6; inactive.
For ksr [DRSC36701] the deposit lists mitotic cells, replicate 1 = 7; inactive.
Silencing of disco [DRSC20323] came out at: mitotic cells, replicate 1 = 12; inactive.
Silencing of disco [DRSC25113] gave: mitotic cells, replicate 1 = 7; inactive.
Knock-down of CG16723 [DRSC15138] resulted in: mitotic cells, replicate 1 = 15; inactive.
Silencing of CG16723 [DRSC28144] resulted in: mitotic cells, replicate 1 = 6; inactive.
Spn42Da [DRSC05025] showed mitotic cells, replicate 1 = 4; inactive.
Against snoRNA:Me28S-C3420b + RpS11 [DRSC07396] the deposit lists mitotic cells, replicate 1 = 8; inactive.
With knock-down of CCAP [DRSC15674], the record shows mitotic cells, replicate 1 = 11; inactive.
Depletion of CG1910 [DRSC15400] resulted in: mitotic cells, replicate 1 = 6; inactive.
Against CG1910 [DRSC39143] the deposit lists mitotic cells, replicate 1 = 14; inactive.
Against CG3764 [DRSC10375], the values are mitotic cells, replicate 1 = 7; inactive.
Against Hr3 [DRSC07441], the entry reads mitotic cells, replicate 1 = 14; inactive.
sano [DRSC06165] showed mitotic cells, replicate 1 = 6; inactive.
Knock-down of sano [DRSC26307] resulted in: mitotic cells, replicate 1 = 4; inactive.
Depletion of CG7156 [DRSC16207] resulted in: mitotic cells, replicate 1 = 5; inactive.
For CG7156 [DRSC27345], the entry reads mitotic cells, replicate 1 = 8; inactive.
Knock-down of Pfdn6 [DRSC10915] resulted in: mitotic cells, replicate 1 = 3; inactive.
With knock-down of CG31050 [DRSC13883], the record shows mitotic cells, replicate 1 = 13; inactive.
Silencing of CG32248 [DRSC08102] came out at: mitotic cells, replicate 1 = 10; inactive.
After knock-down of CG32248 [DRSC25738] the results were mitotic cells, replicate 1 = 10; inactive.
Against Dpck [DRSC12575], the entry reads mitotic cells, replicate 1 = 4; inactive.

3 successive records already listed, for reference:
Pfdn6 [DRSC10915] — mitotic cells, replicate 1 = 3; Call = inactive
CG31050 [DRSC13883] — mitotic cells, replicate 1 = 13; Call = inactive
CG32248 [DRSC08102] — mitotic cells, replicate 1 = 10; Call = inactive

Continued.
Depletion of CG17928 [DRSC02644] came out at: mitotic cells, replicate 1 = 14; inactive.
CG9302 [DRSC03191] gave mitotic cells, replicate 1 = 6; inactive.
For alphaSnap [DRSC11285], the entry reads mitotic cells, replicate 1 = 3; inactive.
alphaSnap [DRSC29788] scored mitotic cells, replicate 1 = 7; inactive.
CG31560 [DRSC12136] scored mitotic cells, replicate 1 = 5; inactive.
Knock-down of MtnB [DRSC22744] resulted in: mitotic cells, replicate 1 = 6; inactive.
Silencing of MtnB [DRSC29147] gave: mitotic cells, replicate 1 = 2; inactive.
Knock-down of Su(z)12 [DRSC11293] resulted in: mitotic cells, replicate 1 = 6; inactive.
Knock-down of Su(z)12 [DRSC26081] resulted in: mitotic cells, replicate 1 = 2; inactive.
After knock-down of Ugt36F1 [DRSC02601], the record shows inactive.
Depletion of CG6839 [DRSC10723] gave: mitotic cells, replicate 1 = 6; inactive.
After knock-down of kni [DRSC23093], the screen gave mitotic cells, replicate 1 = 21; inactive.
Against kni [DRSC29974] the deposit lists mitotic cells, replicate 1 = 17; inactive.
